Measurements reported in PubChem BioAssay AID1259405 (NCATS, 2018).
Test: 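Mouse-designed siRNAs used to find CHO productivity engineering targets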 (primary screen). System: Chinese hamster CHO-K1 ovary cells with stable secreted eGFP expression. Reagents: single siRNA against mouse genes, 0.8 pmol siRNA per well (2 µl of 400 nM stock). Timing: 3 days. Measurement: 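Per-well intracellular GFP measured by laser scanning cytometry, plus viability from ATP luminescence, each relative to plate median of non-targeting control wells, in %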. Direction: GFP, % of control: higher = more GFP per well, higher productivity; viability (ATP), % of control: higher = more viable cells (more ATP). Hit rule: 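a knock-down is called active if GFP reaches 120% or more of non-targeting control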.
The whole screen tested about 50,000 reagents; below is an unselected part. About 4,000 of them (8%) were called active. 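Mouse siRNA library applied to hamster cells; one well for each siRNA.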 Entries without a mark were called inactive. The numbers tell different reagents against one gene apart.

{"gene": "Bard1 (GeneID 12021)", "reagent no.": 1, "GFP, % of control": 91.1, "viability (ATP), % of control": 77.4}
{"gene": "Bard1 (GeneID 12021)", "reagent no.": 2, "GFP, % of control": 71.8, "viability (ATP), % of control": 92.9}
{"gene": "Bard1 (GeneID 12021)", "reagent no.": 3, "GFP, % of control": 100, "viability (ATP), % of control": 92.8}
{"gene": "Atp5mg (GeneID 27425)", "reagent no.": 1, "GFP, % of control": 71.7, "viability (ATP), % of control": 54.2}
{"gene": "Atp5mg (GeneID 27425)", "reagent no.": 2, "GFP, % of control": 65.3, "viability (ATP), % of control": 93.6}
{"gene": "Atp5mg (GeneID 27425)", "reagent no.": 3, "GFP, % of control": 42.8, "viability (ATP), % of control": 42.1}
{"gene": "Top1 (GeneID 21969)", "reagent no.": 1, "GFP, % of control": 77.5, "viability (ATP), % of control": 72.6}
{"gene": "Top1 (GeneID 21969)", "reagent no.": 2, "GFP, % of control": 83.4, "viability (ATP), % of control": 69.5}
{"gene": "Top1 (GeneID 21969)", "reagent no.": 3, "GFP, % of control": 79.3, "viability (ATP), % of control": 82.9}
{"gene": "Gm4425 (GeneID 100043416)", "reagent no.": 1, "GFP, % of control": "122 (active)", "viability (ATP), % of control": 118}
{"gene": "Gm4425 (GeneID 100043416)", "reagent no.": 2, "GFP, % of control": 65.5, "viability (ATP), % of control": 57.4}
{"gene": "Gm4425 (GeneID 100043416)", "reagent no.": 3, "GFP, % of control": 81.8, "viability (ATP), % of control": 86.6}
{"gene": "C9 (GeneID 12279)", "reagent no.": 1, "GFP, % of control": 87.4, "viability (ATP), % of control": 79.4}
{"gene": "C9 (GeneID 12279)", "reagent no.": 2, "GFP, % of control": 65.3, "viability (ATP), % of control": 23}
{"gene": "C9 (GeneID 12279)", "reagent no.": 3, "GFP, % of control": 76, "viability (ATP), % of control": 68.1}
{"gene": "St3gal2 (GeneID 20444)", "reagent no.": 1, "GFP, % of control": 104, "viability (ATP), % of control": 93.3}
{"gene": "St3gal2 (GeneID 20444)", "reagent no.": 2, "GFP, % of control": 46.1, "viability (ATP), % of control": 51.7}
{"gene": "St3gal2 (GeneID 20444)", "reagent no.": 3, "GFP, % of control": 117, "viability (ATP), % of control": 100}
{"gene": "Scp2d1 (GeneID 66328)", "reagent no.": 1, "GFP, % of control": 73.9, "viability (ATP), % of control": 60.8}
{"gene": "Scp2d1 (GeneID 66328)", "reagent no.": 2, "GFP, % of control": 86.6, "viability (ATP), % of control": 83.6}
{"gene": "Scp2d1 (GeneID 66328)", "reagent no.": 3, "GFP, % of control": 47.3, "viability (ATP), % of control": 75.6}
{"gene": "Pnma1 (GeneID 70481)", "reagent no.": 1, "GFP, % of control": 78.5, "viability (ATP), % of control": 143}
{"gene": "Pnma1 (GeneID 70481)", "reagent no.": 2, "GFP, % of control": 81.6, "viability (ATP), % of control": 102}
{"gene": "Ptcd2 (GeneID 68927)", "reagent no.": 1, "GFP, % of control": 75, "viability (ATP), % of control": 84.7}
{"gene": "Ptcd2 (GeneID 68927)", "reagent no.": 2, "GFP, % of control": 94.9, "viability (ATP), % of control": 73.6}
{"gene": "Ptcd2 (GeneID 68927)", "reagent no.": 3, "GFP, % of control": 98.8, "viability (ATP), % of control": 72}
{"gene": "Psmc4 (GeneID 23996)", "reagent no.": 1, "GFP, % of control": "121 (active)", "viability (ATP), % of control": 85.6}
{"gene": "Psmc4 (GeneID 23996)", "reagent no.": 2, "GFP, % of control": 2.17, "viability (ATP), % of control": 2.24}
{"gene": "Psmc4 (GeneID 23996)", "reagent no.": 3, "GFP, % of control": 13.5, "viability (ATP), % of control": 9.26}
{"gene": "Hyal1 (GeneID 15586)", "reagent no.": 1, "GFP, % of control": "122 (active)", "viability (ATP), % of control": 106}
{"gene": "Hyal1 (GeneID 15586)", "reagent no.": 2, "GFP, % of control": 71.1, "viability (ATP), % of control": 73.7}
{"gene": "Hyal1 (GeneID 15586)", "reagent no.": 3, "GFP, % of control": 93.4, "viability (ATP), % of control": 71.5}
{"gene": "Ghrl (GeneID 58991)", "reagent no.": 1, "GFP, % of control": 65.7, "viability (ATP), % of control": 61.4}
{"gene": "Ghrl (GeneID 58991)", "reagent no.": 2, "GFP, % of control": 78.2, "viability (ATP), % of control": 65.1}
{"gene": "Ghrl (GeneID 58991)", "reagent no.": 3, "GFP, % of control": 81.4, "viability (ATP), % of control": 46.8}
{"gene": "Prpf38b (GeneID 66921)", "reagent no.": 1, "GFP, % of control": 59.2, "viability (ATP), % of control": 78.6}
{"gene": "Prpf38b (GeneID 66921)", "reagent no.": 2, "GFP, % of control": 36.2, "viability (ATP), % of control": 67.4}
{"gene": "Prpf38b (GeneID 66921)", "reagent no.": 3, "GFP, % of control": 80, "viability (ATP), % of control": 107}
{"gene": "Slc29a4 (GeneID 243328)", "reagent no.": 1, "GFP, % of control": 89.5, "viability (ATP), % of control": 100}
{"gene": "Slc29a4 (GeneID 243328)", "reagent no.": 2, "GFP, % of control": 51.4, "viability (ATP), % of control": 62.8}
{"gene": "Slc29a4 (GeneID 243328)", "reagent no.": 3, "GFP, % of control": 82, "viability (ATP), % of control": 85.7}
